# Screen size: about 1,000 compounds; fewer than 10 were called active.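 How the source made its calls: active means fitted half-maximal concentration no higher than twice the top valid tested dose, with signal falling; inconclusive means flat curve with 30 to 70% inhibition, or poor fit; inactive means the rest.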 The list shows a part of the results. Measured potencies and affinities stand elsewhere.
# Molecular target: Golgi-associated PDZ and coiled-coil motif-containing protein (Homo sapiens) (UniProt Q9HD26)
# Assay: CAL PDZ domain peptide-binding inhibitors, dose response, biochemical, fluorescence polarization, untagged CAL PDZ, cherry-pick, set 2 (AID 602254);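 further: 0% = DMSO neutral control and -100% = unlabeled peptide PRC23 positive control; more negative means stronger blocking of peptide binding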
# Settings: Purified CAL PDZ, TMR peptide fluorescence polarization; at 60 µM (top of the series)
row,Structure (SMILES),"activity change, negative = inhibition"
1,CC(=O)c1cc(Cl)ccc1OCC(=O)Nc1cccc(S(=O)(=O)N2CCCC2)c1,inactive: 6.73%
2,COc1ccc(CCNS(=O)(=O)c2ccc(-n3cnnn3)c(OC)c2)cc1OC,inactive: 1.4%
3,N#Cc1c(N)c(C#N)c(-c2ccc(O)cc2)c2c1CCCC2,inactive: -0.315%
4,O=C(O)c1ccccc1CSc1nnnn1-c1ccccc1,inactive: 0.49%
5,C/C(=N\NS(C)(=O)=O)c1ccccc1,inactive: -0.401%
6,CCCCc1ccc(S(=O)(=O)Nc2nnc(C)s2)cc1,inactive: -0.202%
7,COc1ccccc1CNc1ccc2nnc(CCNC(=O)c3ccccc3)n2n1,inactive: 9.53%
8,Cc1c(C(=O)N2CCCCC2)c(S(=O)(=O)N2CCC(C)CC2)c(C)n1C,inactive: -2.2%
9,Cc1c(C(=O)N2CCCCC2)c(S(=O)(=O)NCc2ccc(Cl)cc2)c(C)n1C,inactive: -4.68%
10,Cc1ccc(C(c2nnnn2C2CCCCC2)N2CCc3ccccc32)cc1 (stereo unspecified),inactive: 0.143%
11,N#CCCN(Cc1ccccc1)C(=O)c1cccs1,inactive: 8.34%
12,CN(C)CCCNC(=S)Nc1ccc(Oc2ccccc2)cc1,inactive: -9.71%
13,CCn1nc(C(=O)Nc2cc(Cl)ccc2-n2cncn2)c2ccccc2c1=O,inactive: 1.96%
14,COc1ccccc1NC(=O)Cn1cnc2c(cnn2-c2ccccc2)c1=O,inactive: -2.97%
15,O=C(Nc1cccc(C(=O)N2CCCCC2)c1)C1CC1,inactive: -0.502%
16,CCOc1ccccc1C(=O)NCC(=O)OCc1csc(CC(=O)Nc2ccc(C)cc2)n1,inactive: -1.29%
17,COc1ccccc1-n1cc(-c2ccccc2)c2c(=S)nc[nH]c21,inactive: 2.01%
18,C#CCN1[C@@H]2CCN(C2)c2cc(Br)ccc2S1(=O)=O,inactive: -14.6%
19,Cc1cccc(C)c1NC(=O)NCCCN1CCN(c2ccccc2)CC1,inactive: 2.69%
20,Cc1ccc(NS(=O)(=O)c2cccc(C(=O)NC3CCN(Cc4ccccc4)CC3)c2)cc1,inactive: 1.86%
21,COc1ccc(CCNc2nc(-c3cccc(NC(C)=O)c3)cs2)cc1OC,inactive: -0.077%
22,CC(=O)n1cc(/C=N/NC(=O)c2ccccc2Cl)c2ccccc21,inactive: 2.62%
23,Cc1cccc(C(=O)OC(C)C(=O)N2CCc3ccccc3C2)c1C (stereo unspecified),inactive: -1.26%
24,CCC(C)NC(=O)c1ccccc1-c1ccccc1C(=O)NC(C)CC (stereo unspecified),inactive: 1.82%

# Three entries already listed, arranged by molecular weight, ascending:
row,Structure (SMILES),"activity change, negative = inhibition"
12,CN(C)CCCNC(=S)Nc1ccc(Oc2ccccc2)cc1,inactive: -9.71%
24,CCC(C)NC(=O)c1ccccc1-c1ccccc1C(=O)NC(C)CC (stereo unspecified),inactive: 1.82%
8,Cc1c(C(=O)N2CCCCC2)c(S(=O)(=O)N2CCC(C)CC2)c(C)n1C,inactive: -2.2%

# Further results:

row,Structure (SMILES),"activity change, negative = inhibition"
1,COc1ccc(-c2[nH]ncc2CNC(C)CCn2cccn2)cc1F (stereo unspecified),inactive: -0.462%
2,O=c1[nH]c2ccccc2cc1CN(CC1CCCO1)S(=O)(=O)c1ccccc1 (stereo unspecified),inactive: 1.42%
3,CC(=O)c1c(C)[nH]c(C(=O)COC(=O)c2c(-c3ccccc3)noc2C)c1C,inactive: 1.61%
4,COc1cc(-c2noc(CCCC(=O)Nc3cccnc3)n2)cc(OC)c1OC,inactive: 0.328%
5,Cc1ccc(NC(=O)c2cc(NC(=O)c3ccccc3C(=O)O)ccc2N2CCCCC2)cc1,inactive: 2.4%
6,O=C(NCc1ccncc1)C(=O)N/N=C/c1ccccn1,inactive: -0.098%
7,COc1ccccc1OCCC(=O)OCC(=O)Nc1ccc(Br)cc1F,inactive: -0.071%
8,Cn1cccc1C(=O)N1CCc2ccccc2C1,inactive: 0.348%
9,COc1cccc(-c2ccnc3[nH]n(-c4ccccc4)c(=O)c23)c1,inactive: -0.972%
10,N#CCc1nn(-c2ccccc2)c2ncnc(N)c12,inactive: -0.48%
11,CC(C)CNC(=O)COC(=O)c1n[nH]c2ccccc12,inactive: 2.38%
12,CC(C)CCNC1c2ccccc2C(=O)N1Cc1ccccc1 (stereo unspecified),inactive: -1.1%
13,COc1cccc(N2CCN(CC(=O)NCc3ccccc3)CC2)c1,inactive: 2.69%
14,CCOC(=O)C1CCN(C(=O)/C(=C/c2ccccc2)NC(=O)c2ccccc2)CC1,inactive: -2.12%
15,COCCNC(=O)c1ccc(S(=O)(=O)N2CCCc3ccccc32)cc1,inactive: -2.82%
16,COc1ccc(OC(C)C(=O)NCc2cccnc2)cc1 (stereo unspecified),inactive: 1.53%
17,CC(=O)N1CCC(=NNC(=O)c2cc3ccccc3cc2O)CC1,inactive: -2.91%
18,O=C(COC(=O)COc1ccc(Br)cc1)NCC1CCCO1 (stereo unspecified),inactive: -4.89%
19,CN(C(=O)COc1ccc(Cl)cc1Br)C1CCCCC1,inactive: 3.51%
20,COc1ccc(OCCSc2nnc(C(C)NC(=O)c3ccccc3F)n2C)cc1 (stereo unspecified),inactive: -3.42%
21,Cc1ncoc1C(=O)NCCC(c1ccccc1)c1ccccc1,inactive: -1.22%
22,O=C(O)C1CCCN1c1nc(-c2ccc(Cl)c(Cl)c2)cc(C(F)(F)F)n1 (stereo unspecified),inactive: 3.38%
23,O=C(O)CCCCCN1C(=O)CCC1=O,inactive: -0.248%
24,c1cncc(CSc2ccc(-c3ccc4c(c3)OCO4)nn2)c1,inactive: 8.45%

row,Structure (SMILES),"activity change, negative = inhibition"
1,Cc1ccnc(NC(=O)c2ccc(Br)s2)c1,inactive: 1.55%
2,O=C(NCc1ccccc1Cl)C1CCN(S(=O)(=O)N2CCOCC2)CC1,inactive: 2%
3,CCc1ccc(NC(=S)Nn2cnnc2)cc1,inactive: 2.79%
4,CC1CC(C)CN(C(=O)CCn2c(=O)oc3ccccc32)C1 (stereo unspecified),inactive: 2.08%
5,CCC(C(=O)OCn1nnc2ccccc2c1=O)c1ccccc1 (stereo unspecified),inactive: 5.24%
6,CC1CCN(C(=O)CNC(=O)c2ccc(Cl)cc2Cl)CC1,inactive: -2.7%
7,CC1CCCCN1C(=O)c1cccc(NC(=O)c2ccccc2)c1 (stereo unspecified),inactive: 3.68%
8,COc1ccccc1-c1c(C)nn2c(N)c(-c3ccccc3)cnc12,inactive: -0.491%
9,COc1ccccc1C(=O)Nc1cccc2nc(C)ccc12,inactive: 0.557%
10,O=C(c1ccc(S(=O)(=O)N2CCCC2)cc1)N1CCCCCC1,inactive: 4.45%
11,CCN(CCn1cccn1)C(=O)c1cc(COc2ccc(F)c(F)c2)on1,inactive: -13.3%
12,CCOC(=O)Cc1nc2ccccc2n(CC#N)c1=O,inactive: -9.09%
13,CCn1c(SCc2ccc(F)cc2)nnc1C1CCN(S(=O)(=O)c2ccc(OC)cc2)CC1,inactive: 0.126%
14,O=C(CC1C(=O)NCCN1Cc1cccc(F)c1)NCCCCCN1CCOCC1 (stereo unspecified),inactive: -5.11%
15,COc1cccc(CNS(=O)(=O)c2ccc3c(c2)CCN3C(=O)C2CC2)c1,inactive: 1.54%
16,O=C(NCc1ccc(F)cc1)c1c2c(nc3ccccc13)CCN(Cc1ccccc1)C2,inactive: -1.25%
17,CC12CN3CC(C)(CN(C1)C3c1ccc3ccccc3c1O)C2=O (stereo unspecified),inactive: -1.9%
18,COc1ccc(NC(=O)CNC(=O)C2CCCCC2)cc1,inactive: -5.22%
19,OCCCc1cn(Cc2ccccc2)c2ccccc12,inactive: -0.804%
20,CCOCC(=O)Nc1cccc(OC)c1,inactive: 1.45%
21,COc1cccc(OC)c1C(=O)NNC(=O)c1ccc(F)cc1,inactive: -0.882%
22,COc1cc2c(cc1OC)CN(C(=S)Nc1ccccc1Cl)CC2,inactive: 1.93%
23,O=C(NN1CCOCC1)c1cc(-c2ccc(Br)cc2)nc2ccccc12,inactive: -1.93%
24,O=C(c1ccc(S(=O)(=O)NCC2CCCO2)cc1)N1CCN(c2cccc(Cl)c2)CC1 (stereo unspecified),inactive: -0.491%

row,Structure (SMILES),"activity change, negative = inhibition"
1,CC(=O)NC(Cc1ccccc1)C(C)=O (stereo unspecified),inactive: -0.274%
2,OCCC1CN(Cc2ccc3cc(Cl)ccc3n2)CCN1Cc1ccsc1 (stereo unspecified),inactive: -0.428%
3,COc1ccc(-c2csc(N3C(=O)CNC3=S)n2)cc1,inactive: -9.99%
4,C/C(=N\NC(=O)c1cc(-c2ccncc2)nc2ccccc12)c1ccc(OC(F)F)cc1,inactive: -1.04%
5,Cc1ccc(OCCCCn2ccnc2C)c(C)c1,inactive: -1.32%
6,COC(=O)Cc1c(O)ccn(Cc2ccccc2OC)c1=O,inactive: -1.16%
7,CCOc1cc(/C=N/n2c(C)nc3sc(C)c(C)c3c2=O)ccc1O,inactive: -4.47%
8,O=C(c1cccc(S(=O)(=O)NCc2ccccc2)c1)N1CCCC1,inactive: 1.42%
9,Cc1ccc(N2CC(C(=O)Nc3ccc(N(C)C)cc3)CC2=O)cc1C (stereo unspecified),inactive: -1.28%
10,Cc1ccc(CN2C(=O)c3ccccc3NC2c2ccccn2)cc1 (stereo unspecified),inactive: 0.651%
11,Cc1ccc(C(C(=O)NC(C)(C)C)N(CC2CCCO2)C(=O)CCC(=O)Nc2ccccn2)cc1 (stereo unspecified),inactive: 2.71%
12,COc1ccc(CCn2c(=S)[nH]c3ccc(N4CCOCC4)cc3c2=O)cc1OC,inactive: -1.9%
13,COC(=O)c1ccccc1NC(=S)N1CCN(C2CCCCC2)CC1,inactive: 0.591%
14,Cc1cccc(N(CC(=O)NC2CCCCC2)C(=O)CCCC(=O)Nc2ccccn2)c1,inactive: 0.807%
15,CCOc1ccccc1NC(=O)C(=O)N/N=C/c1cc(Br)ccc1O,inactive: -0.611%
16,CN(C)S(=O)(=O)c1cc(NC(=O)Cn2ccsc2=N)ccc1Cl,inactive: -1.36%
17,O=C(Nc1cccnc1)c1cccc(S(=O)(=O)N2CCc3ccccc32)c1,inactive: 6.77%
18,COc1ccc(/C=C2/SC(=S)N(CCCC(=O)Nc3ccc(O)cc3)C2=O)cc1,inactive: 1.95%
19,CN1CCN(C(=O)c2cc(Cl)cc(Cl)c2)CC1,inactive: -0.529%
20,CC(O)CNCCCOc1cccc(Oc2ccccc2)c1 (stereo unspecified),inactive: 1.94%
21,C=CCNC(=S)NNC(=O)c1ccc(C)c(Cl)c1,inactive: 0.039%
22,CCOC(=O)N1CCN(C(=O)c2ccc3c(=O)n(-c4ccc(OC)cc4OC)c(=S)[nH]c3c2)CC1,inactive: 1.69%
23,CC1CCCC(NC(=O)C2CCN(S(=O)(=O)c3cnc[nH]3)CC2)C1C (stereo unspecified),inactive: -0.792%
24,COc1ccc(OC)c(NC(=O)N2CCCC(C(=O)c3ccccc3OC)C2)c1 (stereo unspecified),inactive: -2.85%

# Part of the list above in another layout.
row | Structure (SMILES) | activity change, negative = inhibition
5 | CCC(C(=O)OCn1nnc2ccccc2c1=O)c1ccccc1 (stereo unspecified) | inactive: 5.24%
9 | Cc1ccc(N2CC(C(=O)Nc3ccc(N(C)C)cc3)CC2=O)cc1C (stereo unspecified) | inactive: -1.28%
